{"source": "patent US20040229205A1", "about": "“Compositions for the storage of platelets” (priority 2003, published 2004)", "tested_on": "platelet concentrates", "experiment": "pH and lactate of stored platelet concentrates", "data": [{"smiles": "O=C[C@H](O)[C@H](O)[C@H](O)CO", "note": "[D-Ribose]", "values": [{"measurement": "pH of platelet concentrate", "setting": "15 mM D-Ribose, by four days of storage", "result": 6.0}, {"measurement": "pH of platelet concentrate", "setting": "about 150 nM D-Ribose", "result": "pH remains constant"}]}, {"smiles": "O=C(CO)[C@H](O)[C@H](O)COP(=O)(O)O", "note": "[Ribulose-5-phosphate]", "values": [{"measurement": "pH change versus controls", "setting": "1.5 mM down to 150 pM, analyzed every 24 hours", "result": "No difference from controls"}]}]}
